The subject of this assay is UCB CD133+ cells (HSPC). Briefly: Ex vivo expansion of umbilical cord blood CD133+ cells, flow cytometry and cell counting. Type of assay: cell-based, human. An excerpt:
Human UCB units were collected with written informed pre-consent and ethical approval from Oxford and Berkshire National Research Ethical Committees and studies conducted with approval of the NHSBT research committee. UCB mononuclear cells (MNC) were isolated by density gradient centrifugation on lymphocyte separation medium 1077 (PAA Laboratories, Pasching, Austria; density<1.077 g/ml). CD133+ cells were isolated from the MNC with immunomagnetic beads (Miltenyi Biotec, Germany). After isolation, the cells were cryopreserved in 10% DMSO in FCS (fetal calf serum) and stored at −150° C. in aliquots of 1×10^5 cells/vial. Cells were analysed for the purity of the isolation with flow cytometry on a BD LSR II (BD Biosciences, CA) using CD34-APC, CD133-PE and the appropriate isotype controls (all Miltenyi Biotec). […]
The next day cells were harvested from the plates counted, and seeded into 24 well Nanex plates (Compass Biomedical) or standard tissue culture treated plates at 2500 cells/well in 1 mL basal media (StemSpan ACF with 100 ng/mL SCF, 100 ng/mL FLT3LG and 20 ng/mL TPO) containing an HDAC inhibitor (for most experiments scriptaid was used at a concentration of 1 μM). […]
Cell number was measured using flow cytometry with the aid of counting beads (CountBright beads Life Technologies).

Each structure is given as a SMILES string.

Take `Cc1ccc(C(=O)NCCCCCC(=O)Nc2ccccc2N)cc1` [RG2833]: under “5 day culture, HDAC inhibitor with cytokines, with or without WR1065 (100 μM), vs basal media containing cytokines”, the “fold expansion of total nucleated cells (TNC) compared to cells grown in basal media” value is “increase”. Moreover, the “fold expansion of HSC compared to cells grown in basal media” value (expansion protocol as defined above, HDAC inhibitor with or without WR1065) is reported as “doubled”.

These data come from patent US11702635B2, “Hematopoietic stem cell expansion method” (PLASTICELL LIMITED, priority 2017, dated 2023).
